Results taken from patent US20060105045A1, “Cyclodextrin solubilizers for liquid and semi-solid formulations” (priority 2004, published 2006).
Where a name gives a salt, the structure may show the parent alone. Some results were stated once for a whole list of compounds, not compound by compound.

Assay: Initial solubility screening of selected drugs in cyclodextrin derivative:water-miscible organic solvent stock solutions
Format: physicochemical
Conditions: based on total weight of components
Procedure: In the following experiments, the water-miscible solvents were dried as described in example 1. The hydroxybutenyl-β-cyclodextrins (HBenβCD6.6 and HBenβCD5.0) and the sulfonated hydroxybutenyl-β-cyclodextrins (MSsulfonate=0.3, MSbutentyl=4.4) were carefully dried prior to use. The following stock solutions were prepared:
2. HBenβCD5.0 (30 wt %), PEG 400 (66.2 wt %), and EtOH (3.8 wt %)
7. SulfoHBenCD (29 wt %), PEG 400 (67.6 wt %), and EtOH (3.4 wt %)
Various drugs (20-22 mg) were weighed into different glass vials with screw caps. To each vial was added 1 gram (g) ±0.02 g of stock solution. The vial contents were mixed for ca. 48 h. Vials were inspected visually to determine whether the drugs were dissolved.

SMILES: O=C(c1ccc(OCCN2CCCCC2)cc1)c1c(-c2ccc(O)cc2)sc2cc(O)ccc12 [Raloxifene HCL]
- addition of water required to achieve satisfactory solubility: 3-6 wt %
